The source of these data is PMC5625047.

The target of this assay is p38 MAPK (endogenous, mouse heart) (mouse (endogenous in C57BL/6 hearts)). The experiment in a line: non-reducing SDS-PAGE with immunoblot; mouse hearts, Langendorff perfusion, vehicle then 100 μM H2O2 for 10 min; homogenate in SDS buffer with 100 μM maleimide. A general note: A western blot detects proteins with antibodies after separation by electrophoresis.

These are yes or no findings as the source states them, for the method shown. A result given as binding can be weak or reduced; the word gives no strength.

B1: MKK3 (endogenous, mouse heart) (protein, UniProt O09110 1-347)
chain: MESPAASPPASLPQTKGKSKRKKDLRISCVSKPPVSNPTPPRNLDSRTFITIGDRNFEVEADDLVTISELGRGAYGVVEKVRHAQSGTIMAVKRIRATVNTQEQKRLLMDLDINMRTVDCFYTVTFYGALFREGDVWICMELMDTSLDKFYRKVLEKNMKIPEDILGEIAVSIVRALEHLHSKLSVIHRDVKPSNVLINKEGHVKMCDFGISGYLVDSVAKTMDAGCKPYMAPERINPELNQKGYNVKSDVWSLGITMIEMAILRFPYESWGTPFQQLKQVVEEPSPQLPADQFSPEFVDFTSQCLRKNPAERMSYLELMEHPFFTLHKTKKTDIAAFVKEILGEDS
Take B1: the binding entry was “binds”.
